# Measured values taken from US10647687B2, “Spiropyrazine derivatives as inhibitors of non-apoptotic regulated cell-death” (Helmholtz Zentrum München Deutsches Forschungszentrum für …, priority 2014, dated 2020).
# The amount applied is not stated for every result. Marks after values point to notes of the source that are not given here.
# System: Pfa1 cells
# Experiment: Cellular toxicity, Pfa1 cells without TAM (Example B.5)
# Format: cell-based, mouse
# Details: TC50 divided by the IC50 of Example B.4
# Excerpt: An estimate of the toxicity for compounds disclosed herein was obtained by using the same assay as described in Example B.4, but without the addition of TAM. […] Such TC50 values obtained for certain compounds disclosed herein, together with an approximate therapeutic window (estimated by dividing each TC50 by the corresponding IC50 determined from example B.4) are shown in Table 3 and Table 4.
row,SMILES,Therapeutic Window (approx. fold)
1,c1ccc2c(c1)CCC2NC1=Nc2ccccc2NC12CCCCC2 [D-2],>100 fold
2,c1ccc2c(c1)CCC2NC1=Nc2ccccc2NC12CCOCC2 [D-3],>50 fold
3,c1ccc2c(c1)CCCC2NC1=Nc2ccccc2NC12CCCCC2 [D-4],>100 fold
4,c1ccc2c(c1)CCC2NC1=Nc2ccccc2NC12CCNCC2 [D-5],>200 fold
5,c1ccc2c(c1)N=C(NCCc1c[nH]c3ccccc13)C1(CCNCC1)N2 [D-6],>100 fold
6,c1ccc2c(c1)CCCC2NC1=Nc2ccccc2NC12CCNCC2 [D-7],>100 fold
7,Clc1cccc(CNC2=Nc3ccccc3NC23CC2CCC(C3)N2)c1 [D-8],>100 fold
8,c1ccc(CNC2=Nc3ccccc3NC23CC2CCC(C3)N2)cc1 [D-9],>20 fold
9,Clc1cccc(CNC2=Nc3ncccc3NC23CCCCC3)c1 [D-10],>5 fold
10,Clc1cccc(CNC2=Nc3cc(Cl)ncc3NC23CCCCC3)c1 [D-11],>5 fold
11,c1csc(CNC2=Nc3ccccc3NC23CCCCC3)c1 [D-12],>10 fold
12,c1cncc(CNC2=Nc3ccccc3NC23CCCCC3)c1 [D-13],>20 fold
13,Cc1cc(CNC2=Nc3ccccc3NC23CCCCC3)on1 [D-17],>25* fold
14,Clc1cc2c(cc1Cl)NC1(CCCCC1)C(NCc1cccnc1)=N2 [D-19],>100 fold
15,c1ccc2c(c1)N=C(NCc1nccs1)C1(CCCCC1)N2 [D-20],>25* fold
16,Clc1cc2c(cc1Cl)NC1(CCCCC1)C(NCc1cccs1)=N2 [D-21],>20 fold
17,c1ccc2c(c1)N=C(NCc1cncs1)C1(CCCCC1)N2 [D-22],>20* fold
18,c1coc(CNC2=Nc3ccccc3NC23CCCCC3)c1 [D-23],>25* fold
19,c1ccc2c(c1)N=C(NCc1ccncc1)C1(CCCCC1)N2 [D-24],>25* fold
20,c1csc(CNC2=Nc3ccccc3NC23CCNCC3)c1 [D-181],>100 fold
21,CN1CCC2(CC1)Nc1cc(Cl)c(Cl)cc1N=C2NCc1cccc(Cl)c1 [F-24],>100 fold
22,C#CCCCCCCCCC(=O)N1CCC2(CC1)Nc1ccccc1N=C2NCc1cccc(Cl)c1 [F-25],>50 fold

# Same assay, conditions: TC50 divided by the corresponding IC50 from example B.4 (Pfa1/TAM)
row,SMILES,Therapeutic Window (approx.. fold)
1,Clc1ccccc1CNC1=Nc2ccccc2NC12CCCCC2 [C-1],>100 fold
2,Clc1cccc(CNC2=Nc3ccccc3NC23CCCCC3)c1 [C-2],>100 fold
3,Clc1ccc(CNC2=Nc3ccccc3NC23CCCCC3)cc1 [C-3],>200 fold
4,Fc1cccc(CNC2=Nc3ccccc3NC23CCCCC3)c1 [C-5],>50 fold
5,Cc1cccc(CNC2=Nc3ccccc3NC23CCCCC3)c1 [C-11],>20 fold
6,FC(F)(F)c1cccc(CNC2=Nc3ccccc3NC23CCCCC3)c1 [C-23],>100 fold
7,COc1cccc(CNC2=Nc3ccccc3NC23CCCCC3)c1 [C-47],>50 fold
8,Fc1cc(Cl)ccc1CNC1=Nc2ccccc2NC12CCCCC2 [C-61],>100 fold
9,Clc1cccc(CCNC2=Nc3ccccc3NC23CCCCC3)c1 [C-79],>10 fold
10,CC1CCC2(CC1)Nc1ccccc1N=C2NCc1ccccc1Cl (centres unmarked) [C-91],>100 fold
11,CC(=O)NC1CCC2(CC1)Nc1ccccc1N=C2NCc1cccc(Cl)c1 (centres unmarked) [C-111],>10 fold
12,Fc1cc2c(cc1F)NC1(CCCCC1)C(NCc1cccc(Cl)c1)=N2 [C-137],>100 fold
13,Clc1ccccc1CNC1=Nc2ccccc2NC12CCCCCC2 [C-205],>200 fold
14,Clc1cccc(CNC2=Nc3ccccc3NC23CCCCCCC3)c1 [C-206],>10 fold
15,c1ccc(CNC2=Nc3ccccc3NC23CCCCCC3)cc1 [C-214],>20 fold
16,c1ccc(CNC2=Nc3ccccc3NC23CCCCC3)cc1 [C-215],>50 fold
17,Clc1cccc(CNC2=Nc3ccccc3NC23CCCCCC3)c1 [C-216],>100 fold
18,Clc1cc2c(cc1Cl)NC1(CCCCC1)C(NCc1ccccc1)=N2 [C-217],>500 fold
19,Cc1cc2c(cc1C)NC1(CCCCC1)C(NCc1ccccc1)=N2 [C-218],>200 fold
20,c1ccc(CNC2=Nc3ccccc3NC23CCCC3)cc1 [C-219],>20 fold
21,Clc1ccc(CNC2=Nc3ccccc3NC23CCCCCC3)cc1 [C-220],>50 fold
22,c1ccc(CCCNC2=Nc3ccccc3NC23CCCCC3)cc1 [C-221],>10 fold

row,SMILES,Therapeutic Window (approx.. fold)
1,Fc1cccc(F)c1CNC1=Nc2ccccc2NC12CCCCC2 [C-222],>200 fold
2,c1ccc(CNC2=Nc3cc4c(cc3NC23CCCCC3)OCCO4)cc1 [C-223],>200 fold
3,COc1cccc(CNC2=Nc3ccccc3NC23CCCCCC3)c1 [C-224],>50 fold
4,Cc1cc(C)cc(CNC2=Nc3ccccc3NC23CCCCC3)c1 [C-225],>20 fold
5,c1ccc(CCNC2=Nc3ccccc3NC23CCCCC3)cc1 [C-226],>10 fold
6,Clc1cccc(CNC2=Nc3cc4c(cc3NC23CCCCC3)OCCO4)c1 [C-227],>1000 fold
7,Clc1ccc(CNC2=Nc3ccccc3NC23CCCCC3)cc1Cl [C-228],>500 fold
8,c1ccc(C(CNC2=Nc3ccccc3NC23CCCCC3)c2ccccc2)cc1 [C-229],>10 fold
9,Clc1ccc(CNC2=Nc3ccccc3NC23CCCCC3)c(Cl)c1 [C-230],>200 fold
10,Fc1ccc(CNC2=Nc3ccccc3NC23CCCCC3)c(F)c1 [C-231],>50 fold
11,c1ccc(CCCCNC2=Nc3ccccc3NC23CCCCC3)cc1 [C-232],>20 fold
12,CC(CCc1ccccc1)NC1=Nc2ccccc2NC12CCCCC2 (centres unmarked) [C-233],>20 fold
13,Clc1cccc(CNC2=Nc3cc(Cl)c(Cl)cc3NC23CCCCCC3)c1 [C-234],>100 fold
14,Clc1cc2c(cc1Cl)NC1(CCCCCC1)C(NCc1ccccc1)=N2 [C-235],>50 fold
15,c1ccc(CNC2=Nc3ccccc3NC23CCCCCCC3)cc1 [C-236],>50 fold
16,Clc1cc2c(cc1Cl)NC1(CCCCCCC1)C(NCc1ccccc1)=N2 [C-237],>50 fold
17,Fc1cc2c(cc1F)NC1(CCCCC1)C(NCc1ccccc1)=N2 [C-238],>100 fold
18,Cc1cc2c(cc1C)NC1(CCCCCC1)C(NCc1ccccc1)=N2 [C-239],>50 fold
19,Fc1cccc(F)c1CNC1=Nc2cc(Cl)c(Cl)cc2NC12CCCCC2 [C-240],>20 fold
20,Cc1cc2c(cc1C)NC1(CCCCCCC1)C(NCc1ccccc1)=N2 [C-241],>20 fold
21,Fc1ccc(CNC2=Nc3ccccc3NC23CCCCCC3)c(F)c1 [C-242],>10 fold
22,Clc1cc2c(cc1Cl)NC1(CCCCCC1)C(NCc1ccccc1Cl)=N2 [C-243],>20 fold

row,SMILES,Therapeutic Window (approx.. fold)
1,CC(NC1=Nc2ccccc2NC12CCCCC2)c1ccccc1 (centres unmarked) [C-244],>10 fold
2,CC(=O)NC1CCC2(CC1)Nc1ccccc1N=C2NCc1ccccc1 (centres unmarked) [C-249],>20 fold
3,CC1CCC2(CC1)Nc1ccccc1N=C2NCc1ccccc1 (centres unmarked) [C-252],>10 fold
4,CC1(C)CCC2(CC1)Nc1ccccc1N=C2NCc1ccccc1 [C-253],>10 fold
5,FC(F)(F)c1cccc2c1N=C(NCc1ccccc1)C1(CCCCC1)N2 [C-254],>20 fold
6,Cc1cc2c(cc1C)NC1(CCCCCC1)C(NCc1cccc(Cl)c1)=N2 [C-255],>50 fold
7,FC1(F)Oc2cc3c(cc2O1)NC1(CCCCC1)C(NCc1ccccc1)=N3 [C-256],>200 fold
8,NC1CCC2(CC1)Nc1ccccc1N=C2NCc1ccccc1 (centres unmarked) [C-257],>20 fold
9,Clc1ccc2c(c1)N=C(NCc1ccccc1)C1(CCCCC1)N2 [C-258],>50 fold
10,FC(F)(F)c1ccc2c(c1)N=C(NCc1ccccc1)C1(CCCCC1)N2 [C-259],>20 fold
11,FC(F)(F)c1cccc(CNC2=Nc3cc(Cl)c(Cl)cc3NC23CCCCCC3)c1 [C-260],>50 fold
12,FC(F)(F)c1cccc(CNC2=Nc3ccccc3NC23CCCCCC3)c1 [C-261],>20 fold
13,Cc1cc(C)cc(CNC2=Nc3cc(Cl)c(Cl)cc3NC23CCCCCC3)c1 [C-262],>20 fold
14,Cc1cccc2c1NC1(CCCCC1)C(NCc1ccccc1)=N2 [C-263],>20 fold
15,FC(F)(F)c1cccc(CNC2=Nc3cc(Cl)c(Cl)cc3NC23CCCCC3)c1 [C-264],>20 fold
16,Fc1ccc(CNC2=Nc3cc(Cl)c(Cl)cc3NC23CCCCC3)c(F)c1 [C-265],>50 fold
17,Fc1cccc(F)c1CNC1=Nc2ccccc2NC12CCCCCC2 [C-266],>20 fold
18,Cc1cccc(CNC2=Nc3cc(Cl)c(Cl)cc3NC23CCCCCC3)c1 [C-267],>50 fold
19,Cc1cccc(CNC2=Nc3cc(Cl)c(Cl)cc3NC23CCCCC3)c1 [C-268],>100 fold
20,CC(C)(C)c1ccc(CNC2=Nc3ccccc3NC23CCCCC3)cc1 [C-269],>20 fold
